In the supplement of paper PMC10849652 one finds log2 fold change data, which are given here for 21 targets.

Sequences of proteins named here, by UniProt entry; tags and fusion partners are left off. A change or cut given only in a name is not applied to a line headed by its entry.
UniProt Q9P2D0: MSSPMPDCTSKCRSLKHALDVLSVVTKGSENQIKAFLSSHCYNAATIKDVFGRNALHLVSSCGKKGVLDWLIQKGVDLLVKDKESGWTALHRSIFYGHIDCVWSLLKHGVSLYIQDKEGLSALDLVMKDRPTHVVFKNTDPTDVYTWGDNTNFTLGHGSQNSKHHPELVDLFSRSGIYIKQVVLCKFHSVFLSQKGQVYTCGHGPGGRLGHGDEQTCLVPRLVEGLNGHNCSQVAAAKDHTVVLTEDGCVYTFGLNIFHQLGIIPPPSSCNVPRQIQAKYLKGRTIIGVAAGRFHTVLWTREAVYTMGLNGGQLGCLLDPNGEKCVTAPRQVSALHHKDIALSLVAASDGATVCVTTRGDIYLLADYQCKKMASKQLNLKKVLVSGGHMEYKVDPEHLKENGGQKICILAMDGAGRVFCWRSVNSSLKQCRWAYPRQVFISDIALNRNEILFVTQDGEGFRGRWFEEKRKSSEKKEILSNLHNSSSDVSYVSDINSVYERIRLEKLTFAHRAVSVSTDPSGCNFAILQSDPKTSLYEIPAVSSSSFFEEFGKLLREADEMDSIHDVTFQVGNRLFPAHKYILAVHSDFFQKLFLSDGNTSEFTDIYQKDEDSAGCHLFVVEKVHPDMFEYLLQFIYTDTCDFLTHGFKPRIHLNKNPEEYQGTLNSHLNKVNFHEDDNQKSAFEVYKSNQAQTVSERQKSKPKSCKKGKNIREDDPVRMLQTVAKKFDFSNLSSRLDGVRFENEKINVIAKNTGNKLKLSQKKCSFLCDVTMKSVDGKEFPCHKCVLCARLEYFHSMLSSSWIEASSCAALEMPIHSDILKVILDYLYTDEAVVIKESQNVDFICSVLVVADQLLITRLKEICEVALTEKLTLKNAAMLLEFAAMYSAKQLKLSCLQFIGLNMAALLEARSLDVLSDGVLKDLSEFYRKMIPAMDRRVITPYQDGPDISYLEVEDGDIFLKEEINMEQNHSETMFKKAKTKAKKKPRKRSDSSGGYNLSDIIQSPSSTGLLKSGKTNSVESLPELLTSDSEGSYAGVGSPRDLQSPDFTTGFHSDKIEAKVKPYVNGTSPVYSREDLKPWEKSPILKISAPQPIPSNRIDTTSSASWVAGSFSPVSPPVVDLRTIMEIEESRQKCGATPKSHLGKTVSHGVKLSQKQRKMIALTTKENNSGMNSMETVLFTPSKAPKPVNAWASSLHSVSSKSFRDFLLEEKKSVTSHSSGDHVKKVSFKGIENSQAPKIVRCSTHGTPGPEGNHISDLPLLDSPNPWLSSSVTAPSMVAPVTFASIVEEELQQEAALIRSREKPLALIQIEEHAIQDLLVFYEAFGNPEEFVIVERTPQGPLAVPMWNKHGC
UniProt Q9NQG7: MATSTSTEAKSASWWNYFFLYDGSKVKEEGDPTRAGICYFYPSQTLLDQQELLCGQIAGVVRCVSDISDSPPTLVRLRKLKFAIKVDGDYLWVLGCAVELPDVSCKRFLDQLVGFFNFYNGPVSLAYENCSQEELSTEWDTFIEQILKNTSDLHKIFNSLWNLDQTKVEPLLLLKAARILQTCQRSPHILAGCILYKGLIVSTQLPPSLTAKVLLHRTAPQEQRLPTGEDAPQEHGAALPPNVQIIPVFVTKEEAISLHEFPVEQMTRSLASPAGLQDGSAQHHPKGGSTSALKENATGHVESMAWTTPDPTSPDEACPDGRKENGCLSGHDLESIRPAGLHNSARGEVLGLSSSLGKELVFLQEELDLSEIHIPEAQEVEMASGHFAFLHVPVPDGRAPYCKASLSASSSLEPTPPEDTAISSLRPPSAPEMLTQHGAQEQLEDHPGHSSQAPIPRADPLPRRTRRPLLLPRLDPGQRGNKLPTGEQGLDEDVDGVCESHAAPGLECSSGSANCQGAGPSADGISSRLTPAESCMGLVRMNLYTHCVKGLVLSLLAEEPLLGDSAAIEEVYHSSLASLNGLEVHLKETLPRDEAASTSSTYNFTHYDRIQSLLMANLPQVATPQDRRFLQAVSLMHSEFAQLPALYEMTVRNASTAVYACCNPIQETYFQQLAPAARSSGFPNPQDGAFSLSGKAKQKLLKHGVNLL
UniProt Q96ED9: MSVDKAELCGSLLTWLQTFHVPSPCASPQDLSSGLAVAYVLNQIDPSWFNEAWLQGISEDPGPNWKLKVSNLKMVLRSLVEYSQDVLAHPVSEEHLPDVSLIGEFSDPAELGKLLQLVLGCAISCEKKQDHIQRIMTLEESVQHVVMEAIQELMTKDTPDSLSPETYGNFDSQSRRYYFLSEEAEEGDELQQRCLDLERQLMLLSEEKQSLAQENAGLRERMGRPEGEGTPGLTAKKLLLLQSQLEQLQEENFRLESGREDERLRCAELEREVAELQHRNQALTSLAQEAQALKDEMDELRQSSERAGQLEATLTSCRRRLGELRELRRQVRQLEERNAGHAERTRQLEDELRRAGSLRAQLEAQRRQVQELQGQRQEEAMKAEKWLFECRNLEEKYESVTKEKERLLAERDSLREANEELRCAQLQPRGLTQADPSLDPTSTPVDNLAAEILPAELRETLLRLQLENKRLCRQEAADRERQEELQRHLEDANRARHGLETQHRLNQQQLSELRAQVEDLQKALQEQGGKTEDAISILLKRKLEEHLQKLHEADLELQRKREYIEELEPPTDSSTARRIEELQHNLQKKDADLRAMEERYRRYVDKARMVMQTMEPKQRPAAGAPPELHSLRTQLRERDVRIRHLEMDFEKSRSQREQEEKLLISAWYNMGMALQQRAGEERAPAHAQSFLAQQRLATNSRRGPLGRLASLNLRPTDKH
UniProt Q00839, whole entry, looked up: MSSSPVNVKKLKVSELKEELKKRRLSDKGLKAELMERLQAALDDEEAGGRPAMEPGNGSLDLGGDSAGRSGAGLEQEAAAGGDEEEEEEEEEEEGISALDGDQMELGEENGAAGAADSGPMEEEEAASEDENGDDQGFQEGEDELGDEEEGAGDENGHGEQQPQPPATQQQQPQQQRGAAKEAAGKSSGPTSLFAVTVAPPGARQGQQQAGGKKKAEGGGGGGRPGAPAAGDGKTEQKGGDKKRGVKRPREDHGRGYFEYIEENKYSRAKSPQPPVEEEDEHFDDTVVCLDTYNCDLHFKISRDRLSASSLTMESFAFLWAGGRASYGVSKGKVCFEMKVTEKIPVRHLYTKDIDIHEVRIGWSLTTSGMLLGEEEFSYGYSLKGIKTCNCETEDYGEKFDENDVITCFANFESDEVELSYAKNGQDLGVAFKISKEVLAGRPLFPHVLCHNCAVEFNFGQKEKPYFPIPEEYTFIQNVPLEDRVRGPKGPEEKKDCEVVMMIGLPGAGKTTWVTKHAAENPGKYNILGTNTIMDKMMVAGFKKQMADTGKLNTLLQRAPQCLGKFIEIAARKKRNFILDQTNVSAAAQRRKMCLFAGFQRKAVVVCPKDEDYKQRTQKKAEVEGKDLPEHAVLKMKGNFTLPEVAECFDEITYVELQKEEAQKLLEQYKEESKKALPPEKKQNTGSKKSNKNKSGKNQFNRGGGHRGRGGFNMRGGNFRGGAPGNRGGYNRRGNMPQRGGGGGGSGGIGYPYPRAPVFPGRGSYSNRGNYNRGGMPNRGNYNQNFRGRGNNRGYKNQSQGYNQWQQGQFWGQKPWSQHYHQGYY
UniProt Q8TCT9: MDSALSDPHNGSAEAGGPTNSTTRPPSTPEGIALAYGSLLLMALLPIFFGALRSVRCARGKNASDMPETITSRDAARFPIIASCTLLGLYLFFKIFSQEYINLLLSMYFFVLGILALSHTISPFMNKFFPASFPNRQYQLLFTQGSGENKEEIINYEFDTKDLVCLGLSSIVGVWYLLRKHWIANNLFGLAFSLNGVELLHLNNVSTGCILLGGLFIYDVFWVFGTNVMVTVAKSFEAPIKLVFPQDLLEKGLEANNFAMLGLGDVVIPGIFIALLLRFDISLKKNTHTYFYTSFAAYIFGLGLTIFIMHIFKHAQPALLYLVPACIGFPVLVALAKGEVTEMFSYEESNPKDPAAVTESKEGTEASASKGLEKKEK
UniProt H0YH80: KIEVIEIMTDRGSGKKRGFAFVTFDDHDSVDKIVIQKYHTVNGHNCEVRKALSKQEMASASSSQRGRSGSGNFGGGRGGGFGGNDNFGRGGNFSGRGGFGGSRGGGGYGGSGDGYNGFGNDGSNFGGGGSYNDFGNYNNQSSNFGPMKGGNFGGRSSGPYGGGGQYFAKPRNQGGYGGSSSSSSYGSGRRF
UniProt P41134: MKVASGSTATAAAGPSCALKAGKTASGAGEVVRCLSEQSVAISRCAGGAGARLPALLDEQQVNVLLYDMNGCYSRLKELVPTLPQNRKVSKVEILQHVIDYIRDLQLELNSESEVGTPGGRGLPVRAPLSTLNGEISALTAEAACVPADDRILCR
UniProt P13747, whole entry, looked up: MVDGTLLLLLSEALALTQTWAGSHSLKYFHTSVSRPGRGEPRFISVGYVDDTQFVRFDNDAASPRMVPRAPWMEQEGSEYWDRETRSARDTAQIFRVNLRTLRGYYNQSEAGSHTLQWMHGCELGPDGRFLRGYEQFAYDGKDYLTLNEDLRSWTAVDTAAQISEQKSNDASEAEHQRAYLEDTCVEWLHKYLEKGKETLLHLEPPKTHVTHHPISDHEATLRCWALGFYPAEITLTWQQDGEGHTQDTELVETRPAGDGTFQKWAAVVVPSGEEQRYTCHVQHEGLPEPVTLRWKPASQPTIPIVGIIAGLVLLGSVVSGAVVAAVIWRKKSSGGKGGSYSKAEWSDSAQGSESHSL
UniProt Q9NSB8: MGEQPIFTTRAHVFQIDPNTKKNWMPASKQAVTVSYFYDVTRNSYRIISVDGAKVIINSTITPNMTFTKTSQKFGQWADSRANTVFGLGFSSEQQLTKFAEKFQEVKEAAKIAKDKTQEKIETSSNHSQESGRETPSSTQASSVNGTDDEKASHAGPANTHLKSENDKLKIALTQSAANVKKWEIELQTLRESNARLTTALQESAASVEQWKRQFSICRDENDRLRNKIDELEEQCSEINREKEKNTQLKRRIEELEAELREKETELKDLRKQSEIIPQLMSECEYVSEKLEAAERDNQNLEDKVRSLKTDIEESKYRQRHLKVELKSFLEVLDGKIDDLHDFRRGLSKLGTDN
UniProt Q9P0W2: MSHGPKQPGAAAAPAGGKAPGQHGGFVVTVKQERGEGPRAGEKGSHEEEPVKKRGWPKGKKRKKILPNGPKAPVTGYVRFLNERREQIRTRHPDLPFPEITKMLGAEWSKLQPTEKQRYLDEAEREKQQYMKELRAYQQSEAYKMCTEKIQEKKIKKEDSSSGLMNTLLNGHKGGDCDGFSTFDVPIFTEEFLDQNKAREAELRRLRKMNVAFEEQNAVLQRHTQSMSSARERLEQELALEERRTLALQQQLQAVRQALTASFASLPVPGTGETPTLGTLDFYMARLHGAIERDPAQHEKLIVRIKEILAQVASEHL
UniProt Q9Y241: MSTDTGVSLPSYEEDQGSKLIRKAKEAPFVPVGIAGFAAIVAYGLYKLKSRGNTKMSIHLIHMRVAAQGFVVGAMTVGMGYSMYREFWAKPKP
UniProt Q96EW2: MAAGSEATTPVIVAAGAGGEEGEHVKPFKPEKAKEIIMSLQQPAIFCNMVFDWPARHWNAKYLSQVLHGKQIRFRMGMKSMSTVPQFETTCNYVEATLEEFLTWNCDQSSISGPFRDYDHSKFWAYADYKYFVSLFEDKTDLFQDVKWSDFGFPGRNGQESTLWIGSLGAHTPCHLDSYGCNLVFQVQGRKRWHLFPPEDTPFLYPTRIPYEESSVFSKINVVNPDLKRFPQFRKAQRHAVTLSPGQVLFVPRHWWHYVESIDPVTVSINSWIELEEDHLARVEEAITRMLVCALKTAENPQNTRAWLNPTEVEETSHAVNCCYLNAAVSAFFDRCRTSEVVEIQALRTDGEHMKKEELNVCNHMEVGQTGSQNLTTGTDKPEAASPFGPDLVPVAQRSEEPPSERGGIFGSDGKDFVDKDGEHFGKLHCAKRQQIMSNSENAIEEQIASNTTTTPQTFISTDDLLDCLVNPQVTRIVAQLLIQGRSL
UniProt Q9BW72: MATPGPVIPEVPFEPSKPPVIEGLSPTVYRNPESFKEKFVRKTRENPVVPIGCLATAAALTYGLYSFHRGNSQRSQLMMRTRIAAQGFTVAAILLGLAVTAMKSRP
UniProt P30939: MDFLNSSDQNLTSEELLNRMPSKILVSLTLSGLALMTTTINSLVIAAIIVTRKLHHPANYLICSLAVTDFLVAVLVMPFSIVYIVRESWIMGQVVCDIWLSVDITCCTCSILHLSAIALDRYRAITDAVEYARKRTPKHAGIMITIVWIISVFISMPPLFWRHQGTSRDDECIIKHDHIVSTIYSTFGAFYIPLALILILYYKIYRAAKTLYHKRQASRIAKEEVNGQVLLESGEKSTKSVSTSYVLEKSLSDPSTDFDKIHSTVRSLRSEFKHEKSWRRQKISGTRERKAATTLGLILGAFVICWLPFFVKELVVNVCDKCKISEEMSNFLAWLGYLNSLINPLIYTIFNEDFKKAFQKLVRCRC

The other results are listed elsewhere or left out.

Compound in one test: C1CN(CCC1(CC2=CC=C(C=C2)Cl)N)C3=NC=NC4=C3C=CN4
Briefly: log2 fold change, soluble protein after heating vs DMSO (PISA); higher = thermal stabilisation; K562 cells, 10 uM, 30 min; active = over 0.2 and 3.5 SD of the protein, either way, in both replicates (recomputed). In short, it runs like this:
(§1)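 Thermal stability values are relative to control samples and come from duplicates. They are expressed as log2 fold changes. For measurement, K562 cells (2×10^6 cells/mL) received 10 μM compound for 30 min, and aliquots were heated for 3 min over 48°C-58°C, pooled, and extracted at 4°C in PBS with 0.5% NP-40. Soluble protein, the supernatant after 21,000xg for 90 min, was quantified by TMTpro 16plex LC-MS/MS with equalised channel sums.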
Regarding IBTK (UniProt Q9P2D0), the log2 fold change is inactive: -0.108.

Consider HPS4 isoform 4 (UniProt Q9NQG7), for which the log2 fold change is inactive: -0.074. Take HOOK2 (UniProt Q96ED9): the log2 fold change was inactive: 0.155.

Consider HUWE1, A0A087X1S3, for which the log2 fold change is inactive: -0.049. In the case of HNRNPUL1 (UniProt M0R247), the log2 fold change was inactive: 0.051.

Consider HNRNPU isoform 2 (UniProt Q00839), for which the log2 fold change was inactive: -0.17. HMBS (UniProt F5H226): the log2 fold change was inactive: 0.05. Same read-out and setting: under HM13 (UniProt Q8TCT9) stands inactive: 0.063; under HSP90AA2P (UniProt Q14568), inactive: -0.04; under HNRNPA1 (UniProt H0YH80), inactive: -0.311.

For ID1 (UniProt P41134), the log2 fold change was inactive: 0.061. Same read-out and setting: under HLA-E (UniProt P13747) stands inactive: 0.121.

Regarding HNRNPK isoform 3 (UniProt P61978), the log2 fold change was inactive: -0.052. Same read-out and setting: under HOMER2 (UniProt Q9NSB8) stands inactive: 0.13.

Compound in another test: C1COCCN1CCN2C3=CC=CC=C3N=C2NC(=O)C4=CC(=CC=C4)[N+](=O)[O-] [IRAK-1-4 Inhibitor I]
The test is described as above. The method in brief:
as §1
For the target IBTK (UniProt Q9P2D0), the log2 fold change was inactive: -0.149. As to HPS4 isoform 4 (UniProt Q9NQG7), the log2 fold change is inactive: 0.06. Still for that read-out and setting: under HOOK2 (UniProt Q96ED9) stands inactive: 0.094; under HMG20B (UniProt Q9P0W2), inactive: -0.257; under HIGD1A isoform 2 (UniProt Q9Y241), inactive: -0.132. Same read-out and setting: the same measure for HUWE1, A0A087X1S3: inactive: -0.093. Take HNRNPUL1 (UniProt M0R247): the log2 fold change is inactive: 0.041. On the same count and under the same terms, the same measure for HSPBAP1 (UniProt Q96EW2): inactive: 0.079. On to ICE1 (UniProt Q9Y2F5), for which the log2 fold change was inactive: -0.008. The same measure, in the same setting: the same measure for HNRNPR (UniProt O43390): inactive: -0.312.

With HIGD2A (UniProt Q9BW72), the log2 fold change is inactive: -0.046. Turning to HMBS (UniProt F5H226), the log2 fold change is inactive: 0.172.

For the target HM13 (UniProt Q8TCT9), the log2 fold change was inactive: 0.052. Still for that read-out and setting: the same measure for HNRNPA1 (UniProt H0YH80): inactive: -0.073; for HLA-E (UniProt P13747): inactive: -0.074. On the same count and under the same terms, under HNRNPK isoform 3 (UniProt P61978) stands inactive: -0.011; under HTR1F (UniProt P30939), inactive: -0.058.
